Taken from: PubChem BioAssay AID743121 (NCATS, 2013)
This is a random part of about 26,000 reagents tested. In the full data, 167 (0.63%) were called active. 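Calls are per gene from RSA p-values that are not deposited; an individual active-marked siRNA can sensitise only weakly.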 The numbers tell different reagents against one gene apart. Not all columns of the deposit are shown. Reagent sequences are not shown.

Assay: 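Genes whose silencing strengthens cell killing by camptothecin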 (primary screen)
System: MDA-MB-231 cells, a human breast cancer line
Reagents: single siRNA against human genes, 20 nM siRNA (0.8 pmol per well)
Timing: 120 h (drug added 48 h after transfection, read 72 h later)
Challenge: camptothecin 20 nM (about EC30) for 72 h; vehicle 0.1% DMSO in parallel plates
Measurement: 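CellTiter-Glo ATP signal, scaled to control siRNA as percent viability; sensitisation given as log2 of untreated divided by camptothecin-treated viability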
Reading the numbers: log2 vehicle/camptothecin viability: higher = stronger sensitisation to camptothecin; viability with camptothecin: higher = more viable cells
Hit rule: 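Each gene scored by redundant siRNA activity (RSA) over its individual siRNA ratios; a gene is called active at p < 0.001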

P2RX4 (purinergic receptor P2X 4) #1 showed log2 vehicle/camptothecin viability -0.524; viability with camptothecin (% of control) = 64.4; inactive. P2RX4 (purinergic receptor P2X 4) #2 scored log2 vehicle/camptothecin viability -0.0912; viability with camptothecin (% of control) = 91.1; inactive. Against P2RX4 (purinergic receptor P2X 4) #3 the deposit lists log2 vehicle/camptothecin viability 0.0993; viability with camptothecin (% of control) = 80.4; inactive. Depletion of MLLT10 (MLLT10 histone lysine methyltransferase DOT1L cofactor) #1 came out at: log2 vehicle/camptothecin viability -0.629; viability with camptothecin (% of control) = 92.6; inactive. MLLT10 (MLLT10 histone lysine methyltransferase DOT1L cofactor) #2 gave log2 vehicle/camptothecin viability -0.0694; viability with camptothecin (% of control) = 57.7; inactive. Against MLLT10 (MLLT10 histone lysine methyltransferase DOT1L cofactor) #3, the values are log2 vehicle/camptothecin viability 0.0879; viability with camptothecin (% of control) = 86.2; inactive.

MLLT10 (MLLT10 histone lysine methyltransferase DOT1L cofactor) #4 showed log2 vehicle/camptothecin viability -0.32; viability with camptothecin (% of control) = 67.2; inactive. Knock-down of UNC13B (unc-13 homolog B) #1 came out at: log2 vehicle/camptothecin viability -0.0303; viability with camptothecin (% of control) = 107; inactive. After knock-down of UNC13B (unc-13 homolog B) #2, the screen gave log2 vehicle/camptothecin viability -0.114; viability with camptothecin (% of control) = 105; inactive. Against UNC13B (unc-13 homolog B) #3 the deposit lists log2 vehicle/camptothecin viability -0.186; viability with camptothecin (% of control) = 37.7; inactive. Depletion of UNC13B (unc-13 homolog B) #4 gave: log2 vehicle/camptothecin viability -0.212; viability with camptothecin (% of control) = 112; inactive. With knock-down of RFC2 (replication factor C subunit 2) #1 the results were log2 vehicle/camptothecin viability -0.277; viability with camptothecin (% of control) = 95.6; inactive.

For RFC2 (replication factor C subunit 2) #2, the values are log2 vehicle/camptothecin viability 0.217; viability with camptothecin (% of control) = 57.4; inactive. Knock-down of RFC2 (replication factor C subunit 2) #3 resulted in: log2 vehicle/camptothecin viability 0.0104; viability with camptothecin (% of control) = 91.2; inactive. Knock-down of RFC2 (replication factor C subunit 2) #4 gave: log2 vehicle/camptothecin viability -0.261; viability with camptothecin (% of control) = 71.8; inactive. RNF6 (ring finger protein 6) #1 gave log2 vehicle/camptothecin viability -0.142; viability with camptothecin (% of control) = 82.7; inactive. Silencing of RNF6 (ring finger protein 6) #2 came out at: log2 vehicle/camptothecin viability -0.147; viability with camptothecin (% of control) = 60.1; inactive. Depletion of RNF6 (ring finger protein 6) #3 resulted in: log2 vehicle/camptothecin viability -0.536; viability with camptothecin (% of control) = 16.7; inactive.

Knock-down of SNAP23 (synaptosome associated protein 23) #1 gave: log2 vehicle/camptothecin viability 1.16; viability with camptothecin (% of control) = 21.8; inactive. After knock-down of SNAP23 (synaptosome associated protein 23) #2 the results were log2 vehicle/camptothecin viability -0.132; viability with camptothecin (% of control) = 70.8; inactive. After knock-down of SNAP23 (synaptosome associated protein 23) #3 the results were log2 vehicle/camptothecin viability -0.583; viability with camptothecin (% of control) = 94.1; inactive. SNAP23 (synaptosome associated protein 23) #4 gave log2 vehicle/camptothecin viability -0.192; viability with camptothecin (% of control) = 118; inactive. ZFAND4 (zinc finger AN1-type containing 4) #1 gave log2 vehicle/camptothecin viability -0.527; viability with camptothecin (% of control) = 86.7; inactive. Knock-down of ZFAND4 (zinc finger AN1-type containing 4) #2 gave: log2 vehicle/camptothecin viability 0.0852; viability with camptothecin (% of control) = 91.8; inactive.

After knock-down of ZFAND4 (zinc finger AN1-type containing 4) #3, the screen gave log2 vehicle/camptothecin viability 0.0909; viability with camptothecin (% of control) = 62.3; inactive. Silencing of KIF9 (kinesin family member 9) #1 came out at: log2 vehicle/camptothecin viability 0.072; viability with camptothecin (% of control) = 98.1; inactive. Against KIF9 (kinesin family member 9) #2, the values are log2 vehicle/camptothecin viability 0.059; viability with camptothecin (% of control) = 98.4; inactive. Against KIF9 (kinesin family member 9) #3, the values are log2 vehicle/camptothecin viability 1.38; viability with camptothecin (% of control) = 19.3; inactive. Depletion of KIF9 (kinesin family member 9) #4 gave: log2 vehicle/camptothecin viability 0.636; viability with camptothecin (% of control) = 37; inactive. NTRK1 (neurotrophic receptor tyrosine kinase 1) #1 scored log2 vehicle/camptothecin viability -0.49; viability with camptothecin (% of control) = 29.9; inactive.

After knock-down of NTRK1 (neurotrophic receptor tyrosine kinase 1) #2, the screen gave log2 vehicle/camptothecin viability 0.165; viability with camptothecin (% of control) = 73.5; inactive. NTRK1 (neurotrophic receptor tyrosine kinase 1) #3 gave log2 vehicle/camptothecin viability -0.171; viability with camptothecin (% of control) = 85.4; inactive. NTRK1 (neurotrophic receptor tyrosine kinase 1) #4 showed log2 vehicle/camptothecin viability 0.103; viability with camptothecin (% of control) = 65.8; inactive. After knock-down of TNS2 (tensin 2) #1 the results were log2 vehicle/camptothecin viability -0.369; viability with camptothecin (% of control) = 96.8; inactive. After knock-down of TNS2 (tensin 2) #2, the record shows log2 vehicle/camptothecin viability -0.0947; viability with camptothecin (% of control) = 63.4; inactive. Depletion of TNS2 (tensin 2) #3 gave: log2 vehicle/camptothecin viability 0.639; viability with camptothecin (% of control) = 32.3; inactive.

TNS2 (tensin 2) #4 gave log2 vehicle/camptothecin viability -0.051; viability with camptothecin (% of control) = 43; inactive.

Limited to “viability with camptothecin (% of control)”, for 3 of the entries above:
SNAP23 (synaptosome associated protein 23) #1: 21.8
SNAP23 (synaptosome associated protein 23) #2: 70.8
SNAP23 (synaptosome associated protein 23) #3: 94.1
